# In publication PMC10208570, “Peptidomimetic antibiotics disrupt the lipopolysaccharide transport bridge of drug-resistant Enterobacteriaceae” (Science Advances, 2023):
# No constants are given. Whether binding was seen depends on the method and setting.
# Molecular target: LptC^AA (E. coli), periplasmic domain LptC(25-191) Y60A R61A (E. coli (ATCC 25922)) (UniProt P0ADV9)
# Test: SEC-MALS; purified Lpt proteins and their mixtures (figs. S4 and S5); both purified
substance,measurement,value
"LptC^AA (E. coli), periplasmic domain LptC(25-191) Y60A R61A (from UniProt P0ADV9 25-191) (domain or fragment)",binding,no binding
